For 108 sequences, median seed-adjusted z-score results are on record in PubChem BioAssay AID1347426 (Functional Genomics Laboratory (NCATS/FGL), 2020).

The campaign covered roughly 31,000 sequences. About 1,400 (4.5%) were called active.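 The calls were made as follows: active = median seed-adjusted z-score above 1 or below -1; inactive = the rest.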 The list shows a part of the results.

This assay in a line: Novel Modifiers of Survival Motor Neuron (SMN) Protein: Gene Identification via Genome-wide siRNA Screen.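 Also: luminescence tracks full-length SMN protein made from the SMN2 reporter.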 The conditions noted are these: HEK293T SMN2-luciferase reporter, siRNA knockdown, 72 h; actives lie on both sides. An outline of the steps: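 HEK293T cells stably expressing an SMN2 splicing/cDNA-luciferase reporter were reverse-transfected with a druggable-genome siRNA library and read by luminescence at 72 hours; hits defined by MAD score above 1.0 or below -1.0.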
A general note: Reporter assays use an easily measured gene product as a stand-in for the process of interest.
For GAUUCUGAUUCGCAACCGATT against NOTCH2, the median seed-adjusted z-score was inactive: 0.000598. To GAACAGCCCUUUAAAUUCATT against ETV1 belongs inactive: 0.167; to GGAUGACAUCUUAAACUUATT against IKBKB, inactive: 0.0896; to CGUCAGACUUUUAAAUCCATT against UPP1, inactive: -0.135. Next, CAACCAGUUGACUACCAUGTT against FOXB1: inactive: 0.223.

Consider AGAACAUCGACUUCAGCAATT against SOX8, for which the median seed-adjusted z-score is inactive: 0.186.

In the case of GAGAAACCUUUAUUCGAUATT against GLULD1, the median seed-adjusted z-score was inactive: -0.332.

Turning to GGUUGUCCUUGAGUAAUAATT against IRAK1, the median seed-adjusted z-score was inactive: -0.232.

As to GCCUUGUACAAGAACCCAATT against PYGM, the median seed-adjusted z-score is inactive: -0.0689. Next, AGGCCUCACGUUUUCCAUATT against PMM2: inactive: 0.448; GCAUGACCGCUUAUCCCAATT against SLC6A5: inactive: -0.204. Next, CAAGCUCUUUGGUCAAGAATT against SNX4: inactive: -0.144; GGUAUUUCCUCGCAACAGATT against METT10D: inactive: 0.455. As for GGAAGUGCCUUAUGCCUAUTT against CHIA, the median seed-adjusted z-score was inactive: 0.479. As for CACUUUGUCCUAAAGAUUUTT against GTDC1, the median seed-adjusted z-score was inactive: 0.2.

Turning to GCAUGAGUGCUAUCAGAUATT against PIPOX, the median seed-adjusted z-score is active: 1.06. On to GGCCUACACUUUCAGUGAATT against FCRLA, for which the median seed-adjusted z-score was inactive: 0.03. To GGAGUUACAAGUUAUUUCATT against IL15 belongs inactive: -0.139; to CAUUAACAACCAAAGGAAATT against FDX1, inactive: -0.0549. To GCUGUUGACUCACAAUGAUTT against GCLM belongs inactive: 0.0509. Next, CCUCAGUUCGAAUCUGGUATT against PPEF1: inactive: -0.58.

On to CAUACGACAUUGACAUUCATT against PCDHB1, for which the median seed-adjusted z-score is inactive: 0.342. Next, GGCUUAGCGUAAGCAGUGATT against MKX: inactive: 0.00623; GGCUGAGAUCGUUUUCAAATT against MRPS17: inactive: -0.313.

Take GGAGCUACUGAGAACAUAATT against HOXD4: the median seed-adjusted z-score is inactive: 0.566. To GGAUGUUGAUGGAUCAGGUTT against DHX32 belongs inactive: -0.12.

Turning to GGAAGGACGAUGUUAUUAATT against RLN1, the median seed-adjusted z-score is inactive: 0.0637. CAACCACUAUGUUCUGUAUTT against PSMD3: the median seed-adjusted z-score is inactive: 0.47. To GAUUCGAAAUGGUGAGAAATT against ATP1A1 belongs inactive: 0.271; to CCAAAGAACUUAAGGAUUUTT against NEURL2, active: 1.39; to GGUCUGACAUCUUCGAAUATT against ODZ2, inactive: -0.0233.

As for CAACCAGCACAAUUCUGAATT against NFIX, the median seed-adjusted z-score was inactive: 0.481.

On to GUACUUCAGUGGAGUGAAATT against CDKL1, for which the median seed-adjusted z-score was inactive: -0.28. To AGGAAUAUGUGGUGGAAAATT against CBX1 belongs inactive: 0; to AGCUGGGAUUCAUCCUAAATT against PVALB, inactive: 0.11; to GCAUUACAGCCCAUCAUGATT against SATB2, inactive: -0.389. To CAAUGUUUACUACAAUGAATT against TUBB2B belongs inactive: 0.935. GGAAGUGAGUGAUCAAACATT against LPAR4: the median seed-adjusted z-score was inactive: -0.321. For the sequence CCAGUACUGAGGAACGCAATT against MED12, the median seed-adjusted z-score is inactive: -0.896. To CAACUGUUCCUGUAUUGAATT against SLCO4C1 belongs inactive: -0.116; to UCACAGACGAGGCAUUUAATT against FTCD, inactive: -0.27; to GCCUUUGGUUCGCAAGUUUTT against DYRK2, inactive: 0. To AGACGAAUUUGGGUUUGAATT against NDUFAB1 belongs inactive: -0.282. To GCCUCUCACCUGAAUACAATT against GJB1 belongs inactive: 0.152; to GAAUGUCUGUGAGCAAGCATT against KPNA4, inactive: 0.457; to CAUUAACAUUGUUCGCAAATT against ACO2, active: -1.57.

Consider CCAGAUAAGUUUAAGUAUATT against EIF2B1, for which the median seed-adjusted z-score is inactive: 0.206. Next, GGGAGUAUGCAGACAGUUUTT against PCYT2: inactive: 0.217; CUCAGUUGCUUAUAAAAAUTT against YWHAZ: inactive: 0.721; GGUGUAAUAAUGUCCUUUATT against SNRPF: active: -2.66. To GGAACAUCGAGGACAUCUATT against ARHGEF4 belongs inactive: 0.332; to GGCAUGAAAUAAGGACUAATT against PARL, inactive: -0.0659; to GGUGGACUCUGUUGCUAAATT against MAP2K6, inactive: -0.889. To AGCUCCAUCUCGACCACAATT against FMOD belongs active: -1.32; to AGCCUUUCACGGUCAUUCATT against PRIC285, inactive: 0.

Regarding UGCGUGGAAGCUACACUUATT against ST3GAL3, the median seed-adjusted z-score is inactive: -0.133.

On to ACUGAAAGCUGAUUAAUUATT against KLK2, for which the median seed-adjusted z-score was inactive: 0.0716. In the case of CCUCUGAACUCCUACAUGATT against BMP7, the median seed-adjusted z-score was inactive: -0.893. Next, GGUUUACUUAUGUCCAGAATT against E2F3: inactive: -0.215.

For the sequence GGAAAUUGUGGAUUCGGUATT against PGM1, the median seed-adjusted z-score was inactive: 0.136.

For the sequence GCACAUAAGGAGGCGAUUATT against WDR33, the median seed-adjusted z-score is active: 3.27. To GGAUUUUGGAAAUCGGCUATT against MAN1B1 belongs inactive: -0.88. To UGUCUAUCUUCAUCACCAATT against SCN1B belongs inactive: 0.331; to CAAAGUCUCAAGCUUUGUATT against GZMB, inactive: -0.0378; to GGGAAAGUCUUCAAAUACATT against ZNF485, inactive: 0.445. In the case of GCCGAGUCCUUUUCCUAGATT against IKZF2, the median seed-adjusted z-score is inactive: 0.514. To UCUUCUACCUAAUCCGCAATT against ADORA1 belongs inactive: 0.022; to GCAAUACACGUUUCCUUGATT against KRTAP2-2, inactive: -0.212; to GGUGGAAACUGGGACAAUATT against RPS6KA6, inactive: -0.0821. As for GGCGAGCUCUUUUUCUUCATT against MMP11, the median seed-adjusted z-score was inactive: -0.354. Next, GAAAUCUUCUUACGAAAAATT against XPO7: inactive: 0.546; CGAAAUCUUUUUGAACGAUTT against SUCLG1: inactive: -0.63.

As for UGACCGUUUUGGCAAUCCATT against HBG1, the median seed-adjusted z-score was inactive: -0.716. Next, CACCUUCGAUGUUGAGAAATT against SPAG4: inactive: -0.219; AGAUCUUUGGAGUGCCUAATT against LTK: inactive: -0.0881. To GGCAUCCGCUUGUACUACATT against DBH belongs inactive: 0.337; to CAAGUACUGUGGUAAAUCUTT against PRDM14, inactive: 0.316; to GGAUGUGGGUUUACUCUUUTT against SLC1A5, inactive: -0.104. To UCACUGUGGUGUAUUUUAATT against PDP2 belongs inactive: -0.0726.

With GUAACAAAAGUAAAUCCAATT against VAX1, the median seed-adjusted z-score was inactive: 0.937. To GGGACGUGACCUUGACUUATT against RAMP1 belongs inactive: -0.031.

Turning to GGAAUAACAAUGUGAUAAATT against PNLIPRP1, the median seed-adjusted z-score was inactive: -0.725. Turning to GAGCCUCUAUUAAUGGACATT against RASSF6, the median seed-adjusted z-score is inactive: -0.592.

For the sequence CGAGAUAGGUUGCUGACUUTT against S100A2, the median seed-adjusted z-score is inactive: -0.0951. Next, GCGAAGACAUGUUCGAGAATT against FOXL2: inactive: -0.166.

Take AGGACUACUGUAUCCUGUUTT against IMP5: the median seed-adjusted z-score is inactive: 0.559. In the case of AGACAGAAGCUAAGGCAGATT against ZNF668, the median seed-adjusted z-score was inactive: 0.

CGGGAUCAGUUAGCAACUATT against PRKAA1: the median seed-adjusted z-score is inactive: 0.0423. Next, GCAAUUUUGGGUACUCGUATT against TSTA3: inactive: 0.155. To CGUUCCGACUCUGACCAGATT against SEMA3G belongs inactive: 0.00615; to CCGCAGAUCCUGUAGACUATT against PARD3B, inactive: 0.306. For GAGUGCUCAUAUACCCAGATT against TFR2, the median seed-adjusted z-score is inactive: 0.965.

As for UCGCUACUCCGUAUGGGUATT against ASMTL, the median seed-adjusted z-score was inactive: -0.0375.

Consider AAGUGGUACUAGGAUUAUATT against LSM8, for which the median seed-adjusted z-score was inactive: -0.44.

Take AGGCAUAUCUUGAAGAACATT against CIP29: the median seed-adjusted z-score is active: -1.18. With GCAUGAUCGGGAGGGUUUATT against PPID, the median seed-adjusted z-score was inactive: -0.206.

Consider CAACCAUGCAACUUCGAAATT against JARID1D, for which the median seed-adjusted z-score was inactive: 0.293.

Regarding CAUCGAGGGUGGACUGAUATT against RGL1, the median seed-adjusted z-score is inactive: 0.0217. To CGGGUGCACUACUACAUCUTT against GBGT1 belongs inactive: 0.48; to GGGCGCAAAUUAUACCUAATT against ZNF610, inactive: 0.432. To GGACUUCAAUAUCGCAGUATT against PLCE1 belongs inactive: 0.597; to CAGUGUAUUUGAUUCCGAUTT against SOS1, inactive: 0; to ACAUCACUGCGGAGGCUUCTT against PRSSL1, inactive: -0.221.

As to GCAUAUCAGACGUACAAGATT against SLC10A6, the median seed-adjusted z-score is inactive: -0.803.

Turning to GGUCCUCAUUGAAAACGAATT against BTBD11, the median seed-adjusted z-score is inactive: -0.00434. To GAGUACAUGUACUACCUGATT against RFX1 belongs inactive: 0.818. Next, AGCUCUCCACAGAUCUGAATT against AGAP3: inactive: 0.554; CCUUCUAUCAUGUAAGCUATT against IL1A: active: 1.12.
